Experimental data: the supplement of paper PMC6078165
Values are relative to the signal before dosing, not to a vehicle control; the signal also falls without drug.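 Fibroblast labels name human fibroblasts: mostly primary ones from tissues such as uterus (C12385, HUF), lung (H6013), bone (Hs27A), adrenal (HADF) and skin (WS1), plus mammary HMF and breast cancer-associated Hs343T. The cancer cells are basal-like or mesenchymal-like triple-negative breast cancer lines. The paper calls a changed response a hit when it shifts by more than 3x the replicate standard deviation. The tissue of the other fibroblasts is not given here.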

System: Hs578T
Assay: relative JC-1 red fluorescence (viability) vs pre-drug, coculture with fibroblast (fraction); higher = more viable cancer cells
Method: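 JC-1 labelled TNBC cells cocultured 1:1 (1,500 cells each) with CellTrace Violet stained primary or stromal fibroblasts in 384-well plates in FluoroBrite medium, treated with one of 42 anticancer drugs at 0.1, 1, 10 or 100 uM. JC-1 red fluorescence (mitochondrial integrity in cancer cells only) was read by plate reader every 8 h for 72 h. Values are normalised to each well's pre-drug value. The stock of one drug was tenfold lower, so its dose labels may be too high.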

CN(Cc1cnc2nc(N)nc(N)c2n1)c1ccc(C(=O)N[C@@H](CCC(=O)O)C(=O)O)cc1 [Methotrexate]
relative JC-1 red fluorescence
Details	8 h	16 h	24 h	32 h	40 h	48 h	56 h	64 h	72 h
10 µM	0.871	0.7339	0.692	0.658	0.603	0.58	0.575	0.558	0.568
100 µM	0.886	0.79	0.739	0.69	0.626	0.58242	0.569	0.547	0.54

relative JC-1 red fluorescence
Details	8 h	16 h	24 h	32 h	40 h	48 h	56 h	64 h	72 h
10 µM, coculture fibroblast: C12385	0.861	0.733	0.685	0.586	0.527	0.493	0.464	0.453	0.44
10 µM, coculture fibroblast: H6013	0.9088	0.814	0.772	0.75	0.717	0.707	0.684	0.687	0.671
10 µM, coculture fibroblast: H6019	0.78	0.6797	0.669	0.568	0.525	0.502	0.479	0.464	0.454
10 µM, coculture fibroblast: H6076	0.922	0.8001	0.762	0.744	0.699	0.704	0.686	0.697	0.705
10 µM, coculture fibroblast: H6231	0.931	0.847	0.74	0.698	0.613	0.577	0.515	0.4898	0.4661
10 µM, coculture fibroblast: HADF	0.891	0.818	0.774	0.743	0.724	0.694	0.675	0.669	0.646
10 µM, coculture fibroblast: HCFa	0.866	0.748	0.69524	0.6556	0.595	0.579	0.54	0.537	0.51
10 µM, coculture fibroblast: HCPF	0.927	0.8189	0.759	0.722	0.658	0.624	0.607	0.574	0.552
10 µM, coculture fibroblast: HHSteC	0.896	0.7875	0.725	0.673	0.609	0.583	0.552	0.536	0.5
10 µM, coculture fibroblast: HMF	0.889	0.775	0.722	0.697	0.645	0.616	0.591	0.573	0.563
10 µM, coculture fibroblast: HPFa	0.941	0.849	0.804	0.767	0.746	0.722	0.693	0.685	0.651
10 µM, coculture fibroblast: HUF	0.85221	0.724	0.707	0.5967	0.536	0.4951	0.462	0.454	0.446
10 µM, coculture fibroblast: Hs27A	0.9072	0.8333	0.745	0.681	0.622	0.6	0.563	0.555	0.517
10 µM, coculture fibroblast: Hs343T	0.918	0.77	0.71941	0.6917	0.621	0.594	0.552	0.527	0.521
10 µM, coculture fibroblast: WS1	0.827	0.703	0.65209	0.5722	0.507	0.483	0.453	0.438	0.43
100 µM, coculture fibroblast: C12385	0.842	0.7118	0.69	0.611	0.559	0.529	0.502	0.495	0.486
100 µM, coculture fibroblast: H6013	0.8598	0.783	0.72	0.675	0.621	0.594	0.557	0.544	0.517
100 µM, coculture fibroblast: H6019	0.738	0.6524	0.614	0.515	0.469	0.442	0.416	0.403	0.385
100 µM, coculture fibroblast: H6076	0.943	0.842	0.764	0.723	0.65	0.617	0.587	0.564	0.551
100 µM, coculture fibroblast: H6231	0.879	0.76	0.702	0.675	0.6	0.577	0.5436	0.51968	0.5137
100 µM, coculture fibroblast: HADF	0.88	0.831	0.758	0.693	0.64	0.605	0.561	0.542	0.513
100 µM, coculture fibroblast: HCFa	0.811	0.767	0.714	0.665	0.612	0.595	0.563	0.549	0.523
100 µM, coculture fibroblast: HCPF	0.913	0.811	0.777	0.739	0.679	0.652	0.641	0.6	0.579
100 µM, coculture fibroblast: HHSteC	0.843	0.791	0.75	0.725	0.698	0.671	0.656	0.642	0.616
100 µM, coculture fibroblast: HMF	0.922	0.83	0.787	0.755	0.695	0.666	0.624	0.589	0.568
100 µM, coculture fibroblast: HPFa	0.90671	0.8025	0.733	0.674	0.639	0.614	0.567	0.551	0.512
100 µM, coculture fibroblast: HUF	0.854	0.753	0.734	0.6371	0.5699	0.5382	0.50366	0.4912	0.4798
100 µM, coculture fibroblast: Hs27A	0.881	0.789	0.758	0.719	0.675	0.659	0.631	0.626	0.589
100 µM, coculture fibroblast: Hs343T	0.9157	0.791	0.748	0.715	0.642	0.598	0.562	0.532	0.509
100 µM, coculture fibroblast: WS1	0.7697	0.699	0.686	0.584	0.529	0.499	0.468	0.459	0.45
